Assay results taken from US20040009147A1.
No constants are given. Whether binding was seen depends on the method and setting. Some entries that bind do so weakly or less than the wild type. One block for each substance: values may come before it.

Chains of the proteins cited; added tags and fusions are not shown. Lines headed by an entry give the natural chain unless they say otherwise; changes in a name come on top. Residues count along the entry.
UniProt P36941: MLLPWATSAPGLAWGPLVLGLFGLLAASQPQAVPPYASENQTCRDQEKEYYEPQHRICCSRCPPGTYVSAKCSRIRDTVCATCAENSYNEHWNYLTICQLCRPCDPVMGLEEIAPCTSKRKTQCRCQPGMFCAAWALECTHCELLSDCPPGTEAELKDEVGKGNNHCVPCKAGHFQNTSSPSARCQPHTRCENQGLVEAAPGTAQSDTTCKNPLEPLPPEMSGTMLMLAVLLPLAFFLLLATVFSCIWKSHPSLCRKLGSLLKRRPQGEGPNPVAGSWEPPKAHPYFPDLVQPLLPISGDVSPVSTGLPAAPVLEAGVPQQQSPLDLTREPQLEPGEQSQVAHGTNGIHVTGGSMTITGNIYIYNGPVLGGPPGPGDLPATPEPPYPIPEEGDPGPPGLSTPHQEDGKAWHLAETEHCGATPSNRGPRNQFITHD
LTβR on the surface of human tumor cells (MDA-MB-231, HT-29): residues 31-435 of P36941
UniProt O43557: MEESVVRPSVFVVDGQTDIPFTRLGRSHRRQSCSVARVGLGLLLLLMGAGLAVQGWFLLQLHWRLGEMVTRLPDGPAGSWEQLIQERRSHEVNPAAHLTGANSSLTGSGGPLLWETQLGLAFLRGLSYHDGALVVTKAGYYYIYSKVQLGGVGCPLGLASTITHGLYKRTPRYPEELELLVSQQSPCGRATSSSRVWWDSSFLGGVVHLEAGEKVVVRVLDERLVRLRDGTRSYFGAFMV

How the values were obtained:
[1] = molecular target: LTβR-Fc fusion protein (extracellular domain of human lymphotoxin beta receptor fused to IgG1 Fc) (human) (UniProt P36941); assay: competition in flow cytometry, Fc fusion at 10 µg/ml preincubated with AIM II
[2] = molecular target: LTβR on the surface of human tumor cells (MDA-MB-231, HT-29) (human) (UniProt P36941); assay: flow cytometry (discussion of Example 5)
[3] = molecular target: LTβR-Fc fusion protein (extracellular domain of human lymphotoxin beta receptor fused to IgG1 Fc) (human) (UniProt P36941); assay: BIAcore, LTβR-Fc on the chip
[4] = molecular target: LTβR on the surface of human tumor cells (MDA-MB-231, HT-29) (human) (UniProt P36941); assay: flow cytometry, Flag-tagged sAIM II (10 µg/ml) on MDA-MB-231 cells, anti-Flag mAb; the cells carry both LTβR and TR2 (FIGS. 8A, 8E), the panel does not separate the two receptors
[5] = molecular target: LTβR-Fc fusion protein (extracellular domain of human lymphotoxin beta receptor fused to IgG1 Fc) (human) (UniProt P36941); assay: BIAcore, LTβR-Fc immobilized by amine coupling, dilutions of CHO conditioned medium as analyte
[6] = molecular target: Flag-tagged soluble AIM II protein (sAIM II), amino acids 74-240 of AIM II (human) (UniProt O43557); assay: flow cytometry blocking: LTβR-Fc (10 µg/ml) preincubated 30 min with Flag-tagged sAIM II before addition to MDA-MB-231 cells; blocked: binding of sAIM II to the cells
[7] = molecular target: LTβR-Fc fusion protein (extracellular domain of human lymphotoxin beta receptor fused to IgG1 Fc) (human) (UniProt P36941); assay: BIAcore, LTβR-Fc on the chip, conditioned medium of CHO clones
[8] = molecular target: LTβR-Fc fusion protein (extracellular domain of human lymphotoxin beta receptor fused to IgG1 Fc) (human) (UniProt P36941); assay: LTβR-Fc affinity column, SDS-PAGE with silver stain; eluted fractions retained binding to the LTβR BIAcore chip

binding [2]: binds | binding [4]: binds
Substance: Flag-tagged soluble AIM II protein (sAIM II), amino acids 74-240 of AIM II (from UniProt O43557 74-240) (ligand)
binding [1]: binds | binding [3]: binds | binding [5]: binds

Substance: LTβR-Fc fusion protein (extracellular domain of human lymphotoxin beta receptor fused to IgG1 Fc) (from UniProt P36941 31-227)
binding [6]: binds

Substance: ck-beta 8/AIM II fusion protein from CHO-11 conditioned media (extracellular region of AIM II, amino acids 60-240) (from UniProt O43557 60-240) (ligand)
binding [7]: binds | binding [8]: binds
